Test: Resting phenotype of CHIP S20E knock-in mice aged 9-12 months
Type: in vivo, mouse
[1] = knock-in mice aged 9-12 months, resting

B1: CHIP-S20E: CHIP with serine 20 to glutamic acid phospho-mimetic substitution; recombinant protein, adenovirus-expressed, or knock-in mouse (protein)
chain: MKGKEEKEGGARLGAGGGEPEKSPSAQELKEQGNRLFVGRKYPEAAACYGRVITRNPLVAVYYTNRALCYLKMQQHEQALADCRRALELDGQSVKAHFFLGQCQLEMESYDEAIANLQRAYSLAKEQRLNFGDDIPSALRIAKKKRWNSIEERRIHQESELHSYLSRLIAAERERELEECQRNHEGDEDDSHVRAQQACIEAKHDKYMADMDELFSQVDEKRKKRDIPDYLCGKISFELMREPCITPSGITYDRKDIEEHLQRVGHFDPVTRSPLTQEQLIPNLAMKEVIDAFISENGWVEDY
modifications: left off: small tags and cut ends
notes: CHIP with serine 20 to glutamic acid phospho-mimetic substitution; recombinant protein, adenovirus-expressed, or knock-in mouse
resting cardiac function and lifespan (global knock-in mice): normal resting cardiac function and lifespan
Body Weight [1]: 27.7 ± 2.5 g
Ejection Fraction [1]: 67.0 ± 2.1%
Heart Rate [1]: 733.1 ± 59.6 bpm
Heart Weight [1]: 147.0 ± 19.1 mg
Heart/Body Weight [1]: 5.3 ± 0.3 mg/g
Left Ventricular Weight [1]: 108.1 ± 13.6 mg
Left Ventricular/Body Weight [1]: 3.9 ± 0.2 mg/g
Long/Body Weight [1]: 4.8 ± 0.2 mg/g
Lung Weight [1]: 131.8 ± 12.9 mg
